No constants are given. Whether binding was seen depends on the method and setting. Binding seen in cells or lysates may run through a third protein. Some binding calls cover weakened binding; strength is not graded here.
Molecular target: FLAG-Smad2 (wildtype), Q15796
Experiment: co-IP; wildtype or SUMO site mutant FLAG-Smad2, with or without SUMO1 overexpression, in HEK293T; IP with anti-FLAG from cell lysates, IB with anti-Smad4; overnight at 4 °C, protein A/G agarose
Conditions: remark: other sources report otherwise

binding: binds
B1: Smad4, Q13485 1-552 (protein)
chain: MDNMSITNTPTSNDACLSIVHSLMCHRQGGESETFAKRAIESLVKKLKEKKDELDSLITAITTNGAHPSKCVTIQRTLDGRLQVAGRKGFPHVIYARLWRWPDLHKNELKHVKYCQYAFDLKCDSVCVNPYHYERVVSPGIDLSGLTLQSNAPSSMMVKDEYVHDFEGQPSLSTEGHSIQTIQHPPSNRASTETYSTPALLAPSESNATSTANFPNIPVASTSQPASILGGSHSEGLLQIASGPQPGQQQNGFTGQPATYHHNSTTTWTGSRTAPYTPNLPHHQNGHLQHHPPMPPHPGHYWPVHNELAFQPPISNHPAPEYWCSIAYFEMDVQVGETFKVPSSCPIVTVDGYVDPSGGDRFCLGQLSNVHRTEAIERARLHIGKGVQLECKGEGDVWVRCLSDHAVFVQSYYLDREAGRAPGDAVHKIYPSAYIKVFDLRQCHRQMQQQAATAQAAAAAQAAAVAGNIPGPGSVGGIAPAISLSAAAGIGVDDLRRLCILRMSFVKGWGPDYPRQSIKETPCWIEIHLHRALQLLDEVLHTMPIADPQPLD
